Results published in paper PMC8754130, “A Peptide from Budding Yeast GAPDH Serves as a Promising Antifungal against Cryptococcus neoformans” (Microbiology Spectrum, 2022).
Where “and” joins values, the source holds several entries; their conditions need not be identical. Equal values may be shown once.

Tested on: Candida albicans
Assay: MIC, micro-broth dilution (CLSI M27-A4)
Type: cell-based
Conditions: C. albicans (SC5314), laboratory stock, three independent experiments
Description: The MIC of the peptide was determined using a standardized micro-broth dilution method with a panel of pathogenic yeast strains (C. albicans, […], C. neoformans, and C. gattii) and bacterial strains (Escherichia coli, Micrococcus luteus, Staphylococcus aureus, and Pseudomonas aeruginosa).
The value of the MIC was defined as the lowest concentration of drugs showing no yeast growth. The MIC was determined by three independent repeats, each repeat in quintuplicate.

C[C@@H]1[C@H](O)[C@@H](C)/C=C/C=C/C=C/C=C/C=C/C=C/C=C/[C@H](O[C@@H]2O[C@H](C)[C@@H](O)[C@H](N)[C@@H]2O)C[C@@H]2O[C@](O)(C[C@@H](O)C[C@@H](O)[C@H](O)CC[C@@H](O)C[C@@H](O)CC(=O)O[C@H]1C)C[C@H](O)[C@H]2C(=O)O [AmB, amphotericin B]
MIC: 0.4 µM and 0.37 µg/mL
